Reference: the supplement of paper PMC3334620
Whole data set: some 33,000 sequences, median “E-score (-0.5 to 0.5)” near -8e-05, cut for the highest 2% near 0.23. The list shows a part of the results.

Each sequence was assayed against T1, Nrg2 (UniProt P38082) (assay: PBM E-score (8-mer binding enrichment) (E-score (-0.5 to 0.5)); higher = stronger / more preferred TF binding). Settings: protein concentration: 100 nM; construct: GST-full length.
T1 sequence: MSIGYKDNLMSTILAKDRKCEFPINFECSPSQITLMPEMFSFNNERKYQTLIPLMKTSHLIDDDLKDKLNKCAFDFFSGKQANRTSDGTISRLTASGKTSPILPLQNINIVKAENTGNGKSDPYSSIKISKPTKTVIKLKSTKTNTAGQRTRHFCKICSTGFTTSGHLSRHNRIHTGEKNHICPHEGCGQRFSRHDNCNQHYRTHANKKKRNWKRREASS
Description: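 Universal 'all 10-mer' protein binding microarrays (Agilent AMADID 015681) probed with GST-tagged S. cerevisiae TFs (full-length or DBD) made by in vitro transcription/translation (PURExpress), about 100-200 nM. Bound TF was detected with fluorescent anti-GST. Each ungapped 8-mer (which stands for itself and its reverse complement) is scored by the PBM enrichment score (E-score), a modified Wilcoxon-Mann-Whitney statistic from -0.5 to +0.5, computed with the Universal PBM Analysis Suite. Scale: above 0.35 generally sequence-specific binding.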

Sequence | PBM E-score
ATCCCGTG | 0.143
AACATATC | 0.186
GCTCGGGA | -0.189
CGGGAGAC | -0.141
GATACGTA | -0.0119
ATCTTTCC | 0.0479
ATGTGTGA | -0.0527
AAGTAATC | 0.126
ATTCTCGC | -0.163
CAAGGTCA | -0.0865
AGTGAAAG | -0.0491
CCATGCCA | 0.0148
ATGAACAT | 0.181
CAAACTAG | -0.0559
AGGTGCCC | -0.267
CAGGATAG | 0.103
AGAAAGAG | -0.0521
ATCTTGGC | -0.122
GAACAGTC | -0.161
CCCGTTTC | 0.0498
CACTCCTA | -0.31
GGGTACTA | 0.142
AACGTTAG | -0.0605
CGTGGCGA | -0.0347
ATAAAAAA | 0.0337

Single values from the entries so far:
GCTCGGGA | PBM E-score: -0.189
ATGTGTGA | PBM E-score: -0.0527
AACGTTAG | PBM E-score: -0.0605
CAGGATAG | PBM E-score: 0.103
AGTGAAAG | PBM E-score: -0.0491

Next records follow:

Sequence | PBM E-score
TCCGCACA | 0.0539
CGGTTCAC | -0.195
CTAAATTC | 0.144
AAGCGGAT | 0.0275
AAGACGTA | -0.0582
GACTAAGA | -0.146
ATGAGGTA | 0.0728
CTTTTCTA | -0.155
AGGTGGAT | -0.0485
ACGATGAT | -0.0978
ATCAGTTA | -0.0453
TAGACTGA | -0.0386
CTTCTAAA | -0.0914
GTTCGGCA | -0.0204
CGATCCAG | 0.0385
ACTCACCA | 0.0937
ACGCTGAG | 0.0221
AAGACCCC | 0.0454
AAAATACC | 0.00056
CGAATCAC | 0.117
TAATGGAA | 0.157
AAAAGTAT | 0.0649
AAGGAACC | 0.109
ATTTGAGA | 0.168
ACGGCGTA | -0.107

Sequence | PBM E-score
GTGTTCTA | 0.207
AGCAAGCT | -0.229
AGAAGTGC | -0.102
AATCAACC | 0.0205
AACCTCGA | 0.0566
CTAAGAGC | -0.185
AAGCCGAC | -0.0607
AGGCCCAC | -0.222
AACTTGGA | 0.0634
ACTTCCGA | 0.103
CCACCTCC | -0.221
ACCGTCAA | -0.0323
GAATACGC | 0.0823
CGTTCAGC | 0.00064
AACCGCGA | 0.256
AGGGCGAC | -0.0529
GGGATGAC | -0.00204
CCAGCTGG | -0.0144
TCACCGCA | 0.0871
GAACATAA | 0.201
CGTCATAG | -0.0955
CGGCCTGC | -0.225
TCGGGTAA | -0.00616
GGCGGCAA | -0.0691
ATGGCCGA | 0.0712

Sequence | PBM E-score
GCCTAAAC | -0.114
GCGGAGAC | 0.104
AGCGCGTG | 0.00458
AGTAGTGC | 0.104
GTGTCTGA | 0.058
GCAACATA | 0.0428
AGTGGCGA | 0.151
CGGAAGCC | -0.0402
GTGTCCTA | -0.0476
GCGAAGAA | 0.0522
ATTCCACG | 0.0249
TGACACCA | -0.0771
AAAGACAT | -0.0374
TACAAATA | 0.0774
ATACGTCG | 0.00829
CGACCATA | -0.0241
AGCCCGCT | -0.338
AGACTGAG | -0.0772
GGTATTAA | 0.0523
AGGGGCAT | 0.00378
AAAGTTAC | 0.0473
CATTTGTA | 0.123
CGGACCAC | -0.052
CGAACTAA | 0.162
ACGGACTG | -0.104

Sequence | PBM E-score
CGCCTGCA | 0.00663
GGAAATCC | -0.0565
GACGACGA | -0.0275
AAAAACCA | 0.112
CATGTGAG | -0.131
GCGATAAC | -0.0744
CCGTATGC | 0.0663
AACCTAAG | 0.0645
CAGAAGGA | -0.204
GTCCATGA | -0.237
GCGCGACC | 0.109
AACAGATG | -0.0815
TTCTTAAA | -0.21
CAGTTAAA | -0.0432
AGCCCTCG | -0.0772
TACCTAGA | -0.116
AAACAAAA | 0.0254
CCCGCAAA | 0.188
ACAAAAAA | 0.206
AACTAGGG | 0.122
CTCGCCTA | 0.162
CACTGTCA | 0.101
CGCGAGAA | 0.00518
CAGGAAAA | 0.205
ATCTCATC | 0.0993

Sequence | PBM E-score
AGCCTCAT | -0.198
AAGGACTT | -0.301
CATGGTTA | 0.0738
AAACTCTC | 0.0414
CGAACCCA | -0.0033
AGTGTGAG | -0.0773
CTGTACGA | 0.11
CGCCACCG | -0.0906
CAAATCCA | 0.106
GTTTAGGA | -0.334
ATTGGCGA | 0.0484
CTTGGATA | 0.0205
ACCAGTAG | -0.179
AAGGGTCT | 0.273
AATCACCT | 0.0282
AGAGCGGA | 0.0179
AGGACGTC | -0.169
AGCAGAGC | -0.15
AGCATCTC | 0.026
CCTCTAAA | -0.139
ATAAAGGG | 0.0152
GCCTTGCA | 0.0107
ACAATGCC | 0.0263
GCACAAAA | 0.207
GACTGTAC | -0.0625

Sequence | PBM E-score
GTCCCTAA | 0.106
CTCGCAAA | -0.0853
CACCATCG | -0.222
ACCCTCTC | -0.0636
ACGGTCAA | 0.00512
CCGATTCG | 0.207
CCTGGGAA | 0.147
ATAACCCG | -0.178
CATTACGA | -0.1
AACGATAA | -0.098
AAAGGATC | -0.0716
CGTCATCC | 0.0132
CCTGATCA | -0.0406
AAAGATAT | 0.177
ACCTAATC | 0.179
TCGCAGCA | -0.0431
CACGCCCG | -0.0347
CCAGATTC | -0.193
ATGTGGAG | -0.0678
GAATGCCC | 0.00027
GAAACATC | -0.181
ATTGCGCG | 0.134
ATCATTTA | 0.0968
GGAAGCAA | -0.0162
GACACGGC | -0.00358

2 entries drawn at random from those above:
Sequence | PBM E-score
TCGCAGCA | -0.0431
GACACGGC | -0.00358

Nothing new here: entries from further up.
Sequence | PBM E-score
GGAAGCAA | -0.0162
GACACGGC | -0.00358

Going on with the list:

Sequence | PBM E-score
CATAAGGC | 0.0272
AATACAGT | 0.0623
GACCTGCA | -0.164
ACATACAA | 0.0716
AAAGGGTT | 0.0608
CGAACGTC | -0.236
AAGTTTAA | -0.201
CTCACGTA | -0.0962
CCCCAGCG | -0.114
CACTCGGG | -0.0309
TACCCCAA | 0.247
AAACCCTG | 0.318
CATACAAA | 0.146
AACGAGAC | -0.0169
AAAATTAG | 0.137
AGGTGCTG | -0.104
CGACAATA | 0.235
AGATTGCC | 0.0069
CATCCGTC | 0.0784
GTGATACA | 0.103
TCGCATAA | 0.0669
ATTAGCCC | -0.0455
ATGCCTGA | -0.126
GTCCTTCA | 0.0475
CTCCCAAG | -0.127

Sequence | PBM E-score
ACGACCGG | -0.144
AAACTGAA | -0.00473
ATTATGTG | 0.182
AAGGGTTC | 0.248
ACTTATTG | 0.0252
ACTTCGCC | 0.226
ATGTCGTC | 0.00888
CCACGATA | 0.0908
CCTTTACA | -0.126
GGGCCTAA | -0.0972
AAGGATAC | -0.00642
CGAGTTCA | 0.0337
ACCTCGTG | 0.0762
CTCTAATA | 0.0885
AACAGCCA | 0.0911
AATGACCT | -0.126
ATTGGAAC | 0.0256
CTCTGTTA | -0.052
CCATGGAA | 0.0473
